Measured values published in publication PMC7717573.
These are yes or no findings as the source states them, for the method shown. Some results given as binding are weak or reduced against the parent protein; the word gives no strength.

T1: wild type hemolytic pneumolysin (Ply-H) (Streptococcus pneumoniae TIGR4 (serotype 4)), P0C2J9
T1 chain: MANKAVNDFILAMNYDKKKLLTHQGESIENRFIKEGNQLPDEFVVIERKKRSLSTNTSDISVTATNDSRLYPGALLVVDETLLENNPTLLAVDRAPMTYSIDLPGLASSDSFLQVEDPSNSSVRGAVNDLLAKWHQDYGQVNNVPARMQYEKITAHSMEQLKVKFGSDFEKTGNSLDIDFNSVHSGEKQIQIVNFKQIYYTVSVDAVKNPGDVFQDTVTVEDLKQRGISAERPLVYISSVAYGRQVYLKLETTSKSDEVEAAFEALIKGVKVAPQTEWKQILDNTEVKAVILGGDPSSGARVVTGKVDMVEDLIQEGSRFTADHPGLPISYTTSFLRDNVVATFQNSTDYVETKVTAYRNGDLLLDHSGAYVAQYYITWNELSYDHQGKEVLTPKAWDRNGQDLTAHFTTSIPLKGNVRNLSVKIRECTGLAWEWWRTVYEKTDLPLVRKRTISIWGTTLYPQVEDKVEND

B1: wild type hemolytic pneumolysin (Ply-H), P0C2J9 1-471 (protein)
chain: T1 chain

What was measured:
[1] = molecular target: wild type hemolytic pneumolysin (Ply-H) (Streptococcus pneumoniae TIGR4 (serotype 4)) (UniProt P0C2J9); assay: SDS-PAGE of unboiled samples with immunoblot (SDS-resistant oligomers); purified Ply variant without cells, 5% SDS-PAGE, anti-Ply blot; both purified
[2] = molecular target: T1, wild type hemolytic pneumolysin (Ply-H) …; assay: negative-stain transmission electron microscopy; purified Ply (0.5 uM) incubated with cholesterol:POPC (50 mol% each) liposomes (2 mg/ml) at 37°C for 30 min, stained with 2% phosphotungstic acid; oligomeric rings on membranes; both purified; details: remark: other sources report otherwise
[3] = molecular target: T1, wild type hemolytic pneumolysin (Ply-H) …; assay: SDS-PAGE of unboiled samples with immunoblot (SDS-resistant oligomers); 10^6 A549 cells incubated with 0.5 ug Ply variant in PBS for 30 min at 37°C, 5% SDS-PAGE without boiling, anti-Ply blot; oligomers on cell membranes; both purified; details: remark: other sources report otherwise

Row | Molecule | binding [1] | binding [2] | binding [3]
1 | wild type hemolytic pneumolysin (Ply-H) (from UniProt P0C2J9 1-471) | no binding (condition: without cells) | – | –
2 | B1 | – | binds | binds
